# Some of these results come from one statement about several compounds together.
# Test system: Human recombinant AMPK
# Test: AMPK enzymatic assay (Z'Lyte FRET)
# Format: biochemical
# Conditions: ATP 100 μM, peptide 2 μM; for average pEC50: same AMPK enzymatic assay
Structure (SMILES),"pEC200 (-Log(compound concentration leading to a 2-fold AMPK activity increase)) (1% DMSO, 1 hour at 30° C., means of at least 2 independent experiments)",average pEC50
"N#Cc1c(O)c2c(ccn2-c2ccc(-c3cccs3)cc2)[nH]c1=O [Example 59, 7-Hydroxy-5-oxo-1-[4-(2-thienyl)phenyl]-4,5-dihydro-1H-pyrrolo[3,2-b]pyridine-6-carbonitrile]",greater than 4.0,–
"N#Cc1c(O)c2c(cc(Cl)n2-c2ccc(-c3cscc3C(N)=O)cc2)[nH]c1=O [Example 102, 4-[4-(2-Chloro-6-cyano-7-hydroxy-5-oxo-4,5-dihydro-1H-pyrrolo[3,2-b]pyridin-1-yl)phenyl]-3-thiophenecarboxamide]",–,greater than 4.5
"O=C(O)c1ccccc1-c1c(O)c2c(cc(Cl)n2-c2ccc(-c3ccsc3)cc2)[nH]c1=O [Example 153, 2-{2-Chloro-7-hydroxy-5-oxo-1-[4-(3-thienyl)phenyl]-4,5-dihydro-1H-pyrrolo[3,2-b]pyridin-6-yl}benzoic acid]",–,greater than 4.5
"N#Cc1c(O)c2c(ccn2-c2ccc(-c3cc[nH]c3)cc2)[nH]c1=O [Example 86, 7-Hydroxy-5-oxo-1-[4-(1H-pyrrol-3-yl)phenyl]-4,5-dihydro-1H-pyrrolo [3,2-b]pyridine-6-carbonitrile]",–,greater than 4.5
